In publication PMC8760370, “Combinatorial inhibition of BTK, PI3K-AKT and BRD4-MYC as a strategy for treatment of mantle cell lymphoma” (Molecular Biomedicine, 2022):

System: BTK and AKT phosphorylation
Test: Inhibitor washout assay, Mino cells
Conditions: 1 h treatment, washes with PBS

**Q.** How did the “AKT phosphorylation after inhibitor wash out” value turn out when `C=CC(=O)N1CCOc2ccc(-c3csc4c(=O)cc(N5CCOCC5)oc34)cc21` was run?
**A.** retained inhibition of AKT phosphorylation

**Q.** What about the “BTK phosphorylation after inhibitor wash out” value of the same molecule?
**A.** retained inhibition of BTK phosphorylation

The structures given here were assigned with low confidence; some may be wrong.
